In patent US20100129346A1 (G2 INFLAMMATION, published 2010):
No constants are given. Whether binding was seen depends on the method and setting.

B1: MAb 8G7 (antibody, V domains shown)
VH: DIQLQESGPGLVKPSQSLSLTCSVTGYSITSGHYWNWIRQLPGNKMEWMGHISNDGSNRYNPSLKNRISITRDTSKNQFFLKLNSVTTEDTATYYCALFYFAYASFAYWGQGTLVTVSA
VL: DVVMTQTPLSLPVSLGDQASISCRSSQSLLHSNGNTYLHWYLQKPGQSPKLLIYKVSTRFSGVPDRFSGSGSGADFTLQISRVEAEDLGVYLCSQSTHVPPTFGAGTKLVLT
notes: Mouse monoclonal antibody from a hybridoma (ECACC 06081803); also called 8G7-M6
B2: MAb 7H3 (antibody, V domains shown)
VH: EVKLEESGGGLVQPGGSMKLSCVASGFTFSDAWMDWVRQSPEKGLEWVAGIRNRANNHATYYVASVKGRFTVSRDDSKSSVYLQMNSLRAEDAGIYYCTRGDGYFFDYWGQGTTLTVSS
VL: DVVLTQTPLSLSVSLGDQASISCRSGQSLVHSNGNTYLHWYLQKPGQSSKLLIYKVSNRLSGVPDRFSGSGSGTDFTLKISRVEAEDLGVYFCSQTTHVPPTFGGGTKLEIK
notes: Mouse monoclonal antibody from a hybridoma (ECACC 06081802); also called 7H3-N9

Molecular target: 14. … (scrambled)
Assay: peptide ELISA, biotinylated peptide on streptavidin-coated plates [b]

| Binder | binding |
| --- | --- |
| B1 | no binding (tested: 2.5 µg/ml (not on the sheet)) |
| B2 | no binding (tested: 2.5 µg/ml (not on the sheet)) |
